Test results from PMC12136456.
Results are given in words; binding and its absence hold for the method and conditions named. Binding seen in cells or lysates may run through a third protein. A yes stands for co-enrichment or nearness to the bait. Other partners may have been found. For part of these data: No binding means not detected with the bait.

Protein sequences, listed by entry. Tags and fused reporters are not part of them.
UniProt P26599: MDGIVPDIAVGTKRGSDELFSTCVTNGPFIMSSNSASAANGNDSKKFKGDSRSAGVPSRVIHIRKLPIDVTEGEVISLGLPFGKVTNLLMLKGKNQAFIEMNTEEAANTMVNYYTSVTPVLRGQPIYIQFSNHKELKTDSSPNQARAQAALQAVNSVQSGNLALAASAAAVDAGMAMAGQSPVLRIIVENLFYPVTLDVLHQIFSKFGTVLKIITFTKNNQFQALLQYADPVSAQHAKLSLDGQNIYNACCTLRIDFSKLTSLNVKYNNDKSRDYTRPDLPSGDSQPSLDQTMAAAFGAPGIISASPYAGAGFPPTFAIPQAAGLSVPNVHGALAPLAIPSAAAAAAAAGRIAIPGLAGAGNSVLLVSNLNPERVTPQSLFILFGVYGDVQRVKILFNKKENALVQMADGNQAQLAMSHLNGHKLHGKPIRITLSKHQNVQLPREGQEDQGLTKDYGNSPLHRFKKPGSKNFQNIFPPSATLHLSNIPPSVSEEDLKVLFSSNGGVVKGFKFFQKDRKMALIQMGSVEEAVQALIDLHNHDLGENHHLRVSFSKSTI
UniProt P31947: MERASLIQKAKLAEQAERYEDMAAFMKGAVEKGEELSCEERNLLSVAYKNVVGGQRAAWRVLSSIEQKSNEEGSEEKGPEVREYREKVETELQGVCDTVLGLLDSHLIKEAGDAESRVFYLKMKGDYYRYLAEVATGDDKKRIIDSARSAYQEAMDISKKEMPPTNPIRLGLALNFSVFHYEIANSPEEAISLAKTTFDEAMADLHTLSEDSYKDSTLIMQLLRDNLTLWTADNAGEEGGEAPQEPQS
UniProt P41091: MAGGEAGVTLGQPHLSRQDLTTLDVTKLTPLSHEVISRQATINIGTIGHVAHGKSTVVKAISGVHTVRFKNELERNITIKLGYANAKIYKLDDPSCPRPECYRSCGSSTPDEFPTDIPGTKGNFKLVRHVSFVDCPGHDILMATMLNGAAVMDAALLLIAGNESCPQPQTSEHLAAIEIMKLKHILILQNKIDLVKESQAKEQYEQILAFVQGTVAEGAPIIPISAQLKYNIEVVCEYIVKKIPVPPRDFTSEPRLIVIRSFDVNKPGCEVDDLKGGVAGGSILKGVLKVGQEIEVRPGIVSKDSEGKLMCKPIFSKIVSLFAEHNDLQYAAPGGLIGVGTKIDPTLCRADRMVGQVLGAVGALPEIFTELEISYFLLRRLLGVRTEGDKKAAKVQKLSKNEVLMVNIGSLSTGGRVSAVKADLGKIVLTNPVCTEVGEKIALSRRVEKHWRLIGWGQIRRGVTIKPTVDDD
UniProt Q96AE4: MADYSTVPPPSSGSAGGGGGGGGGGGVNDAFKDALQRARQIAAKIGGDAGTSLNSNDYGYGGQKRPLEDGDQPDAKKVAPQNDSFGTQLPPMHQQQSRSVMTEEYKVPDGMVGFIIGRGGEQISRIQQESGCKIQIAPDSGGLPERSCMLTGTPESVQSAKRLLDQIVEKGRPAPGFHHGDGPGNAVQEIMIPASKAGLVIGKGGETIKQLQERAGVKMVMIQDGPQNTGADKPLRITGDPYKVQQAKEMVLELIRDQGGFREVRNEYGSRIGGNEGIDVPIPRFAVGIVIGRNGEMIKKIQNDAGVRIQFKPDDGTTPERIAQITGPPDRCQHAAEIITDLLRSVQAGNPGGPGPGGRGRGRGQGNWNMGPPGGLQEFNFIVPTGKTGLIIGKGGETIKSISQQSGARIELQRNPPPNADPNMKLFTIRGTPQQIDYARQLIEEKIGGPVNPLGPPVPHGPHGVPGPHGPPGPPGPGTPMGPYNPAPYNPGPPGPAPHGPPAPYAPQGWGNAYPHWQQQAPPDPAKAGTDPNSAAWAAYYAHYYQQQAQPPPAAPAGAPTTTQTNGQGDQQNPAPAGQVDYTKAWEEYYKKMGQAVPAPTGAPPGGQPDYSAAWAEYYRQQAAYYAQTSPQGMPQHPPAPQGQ
UniProt P0DME0: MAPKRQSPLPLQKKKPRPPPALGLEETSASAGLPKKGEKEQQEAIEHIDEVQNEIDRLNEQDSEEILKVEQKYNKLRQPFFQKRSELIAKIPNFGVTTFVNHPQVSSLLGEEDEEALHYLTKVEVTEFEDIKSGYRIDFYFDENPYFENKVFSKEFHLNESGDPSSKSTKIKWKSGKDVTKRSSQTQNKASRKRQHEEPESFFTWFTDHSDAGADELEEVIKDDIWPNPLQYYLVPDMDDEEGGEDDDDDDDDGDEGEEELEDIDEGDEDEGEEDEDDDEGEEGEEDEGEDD
UniProt P31946: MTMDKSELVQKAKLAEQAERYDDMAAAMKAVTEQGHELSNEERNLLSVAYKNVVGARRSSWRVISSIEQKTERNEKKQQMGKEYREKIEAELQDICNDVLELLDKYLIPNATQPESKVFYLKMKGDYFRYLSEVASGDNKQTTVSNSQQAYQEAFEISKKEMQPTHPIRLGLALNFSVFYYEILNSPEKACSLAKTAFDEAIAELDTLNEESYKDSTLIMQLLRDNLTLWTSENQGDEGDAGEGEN
UniProt O43148: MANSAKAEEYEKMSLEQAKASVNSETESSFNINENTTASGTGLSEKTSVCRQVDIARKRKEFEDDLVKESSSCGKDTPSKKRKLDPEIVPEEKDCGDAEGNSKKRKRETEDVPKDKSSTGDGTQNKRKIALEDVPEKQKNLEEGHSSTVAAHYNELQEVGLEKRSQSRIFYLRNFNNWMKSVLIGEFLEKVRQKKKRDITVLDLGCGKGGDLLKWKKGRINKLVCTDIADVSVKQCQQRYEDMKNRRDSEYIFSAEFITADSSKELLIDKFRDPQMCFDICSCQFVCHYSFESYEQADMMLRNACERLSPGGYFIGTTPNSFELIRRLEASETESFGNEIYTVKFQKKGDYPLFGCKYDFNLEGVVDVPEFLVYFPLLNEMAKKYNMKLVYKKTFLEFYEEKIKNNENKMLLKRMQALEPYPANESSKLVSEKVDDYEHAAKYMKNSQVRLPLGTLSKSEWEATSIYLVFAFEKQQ
UniProt P62308: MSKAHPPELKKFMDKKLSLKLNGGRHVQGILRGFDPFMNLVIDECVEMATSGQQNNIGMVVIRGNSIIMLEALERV
UniProt Q14240: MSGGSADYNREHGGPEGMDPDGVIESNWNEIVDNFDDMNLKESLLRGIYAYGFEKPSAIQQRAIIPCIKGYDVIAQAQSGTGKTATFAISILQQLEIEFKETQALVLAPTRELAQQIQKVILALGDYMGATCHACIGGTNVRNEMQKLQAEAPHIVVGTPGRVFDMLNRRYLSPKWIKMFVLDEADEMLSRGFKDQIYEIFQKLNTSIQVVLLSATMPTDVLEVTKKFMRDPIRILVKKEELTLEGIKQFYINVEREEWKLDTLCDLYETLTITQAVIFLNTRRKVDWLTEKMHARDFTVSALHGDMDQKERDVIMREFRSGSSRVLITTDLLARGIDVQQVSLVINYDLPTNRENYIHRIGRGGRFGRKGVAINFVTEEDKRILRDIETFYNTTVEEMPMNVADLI
UniProt Q9UKA9: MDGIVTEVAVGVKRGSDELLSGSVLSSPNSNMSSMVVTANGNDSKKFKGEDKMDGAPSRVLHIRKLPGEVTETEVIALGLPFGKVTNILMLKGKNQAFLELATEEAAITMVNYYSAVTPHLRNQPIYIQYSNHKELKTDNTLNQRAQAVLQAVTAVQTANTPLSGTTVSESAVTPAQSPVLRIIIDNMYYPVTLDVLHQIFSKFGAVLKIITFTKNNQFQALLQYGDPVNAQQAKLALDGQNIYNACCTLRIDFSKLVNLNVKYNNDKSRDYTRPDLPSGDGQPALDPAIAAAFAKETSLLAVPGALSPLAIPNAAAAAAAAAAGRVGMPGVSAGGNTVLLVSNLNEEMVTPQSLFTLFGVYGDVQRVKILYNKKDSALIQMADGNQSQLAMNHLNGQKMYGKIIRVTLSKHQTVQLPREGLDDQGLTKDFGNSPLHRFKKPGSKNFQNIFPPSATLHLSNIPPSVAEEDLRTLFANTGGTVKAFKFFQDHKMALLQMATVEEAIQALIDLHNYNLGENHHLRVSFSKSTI
UniProt P61326: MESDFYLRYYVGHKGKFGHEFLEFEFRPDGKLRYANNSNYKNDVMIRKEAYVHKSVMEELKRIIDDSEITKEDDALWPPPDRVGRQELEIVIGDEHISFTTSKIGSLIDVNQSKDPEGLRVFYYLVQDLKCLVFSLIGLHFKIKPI
UniProt P51531: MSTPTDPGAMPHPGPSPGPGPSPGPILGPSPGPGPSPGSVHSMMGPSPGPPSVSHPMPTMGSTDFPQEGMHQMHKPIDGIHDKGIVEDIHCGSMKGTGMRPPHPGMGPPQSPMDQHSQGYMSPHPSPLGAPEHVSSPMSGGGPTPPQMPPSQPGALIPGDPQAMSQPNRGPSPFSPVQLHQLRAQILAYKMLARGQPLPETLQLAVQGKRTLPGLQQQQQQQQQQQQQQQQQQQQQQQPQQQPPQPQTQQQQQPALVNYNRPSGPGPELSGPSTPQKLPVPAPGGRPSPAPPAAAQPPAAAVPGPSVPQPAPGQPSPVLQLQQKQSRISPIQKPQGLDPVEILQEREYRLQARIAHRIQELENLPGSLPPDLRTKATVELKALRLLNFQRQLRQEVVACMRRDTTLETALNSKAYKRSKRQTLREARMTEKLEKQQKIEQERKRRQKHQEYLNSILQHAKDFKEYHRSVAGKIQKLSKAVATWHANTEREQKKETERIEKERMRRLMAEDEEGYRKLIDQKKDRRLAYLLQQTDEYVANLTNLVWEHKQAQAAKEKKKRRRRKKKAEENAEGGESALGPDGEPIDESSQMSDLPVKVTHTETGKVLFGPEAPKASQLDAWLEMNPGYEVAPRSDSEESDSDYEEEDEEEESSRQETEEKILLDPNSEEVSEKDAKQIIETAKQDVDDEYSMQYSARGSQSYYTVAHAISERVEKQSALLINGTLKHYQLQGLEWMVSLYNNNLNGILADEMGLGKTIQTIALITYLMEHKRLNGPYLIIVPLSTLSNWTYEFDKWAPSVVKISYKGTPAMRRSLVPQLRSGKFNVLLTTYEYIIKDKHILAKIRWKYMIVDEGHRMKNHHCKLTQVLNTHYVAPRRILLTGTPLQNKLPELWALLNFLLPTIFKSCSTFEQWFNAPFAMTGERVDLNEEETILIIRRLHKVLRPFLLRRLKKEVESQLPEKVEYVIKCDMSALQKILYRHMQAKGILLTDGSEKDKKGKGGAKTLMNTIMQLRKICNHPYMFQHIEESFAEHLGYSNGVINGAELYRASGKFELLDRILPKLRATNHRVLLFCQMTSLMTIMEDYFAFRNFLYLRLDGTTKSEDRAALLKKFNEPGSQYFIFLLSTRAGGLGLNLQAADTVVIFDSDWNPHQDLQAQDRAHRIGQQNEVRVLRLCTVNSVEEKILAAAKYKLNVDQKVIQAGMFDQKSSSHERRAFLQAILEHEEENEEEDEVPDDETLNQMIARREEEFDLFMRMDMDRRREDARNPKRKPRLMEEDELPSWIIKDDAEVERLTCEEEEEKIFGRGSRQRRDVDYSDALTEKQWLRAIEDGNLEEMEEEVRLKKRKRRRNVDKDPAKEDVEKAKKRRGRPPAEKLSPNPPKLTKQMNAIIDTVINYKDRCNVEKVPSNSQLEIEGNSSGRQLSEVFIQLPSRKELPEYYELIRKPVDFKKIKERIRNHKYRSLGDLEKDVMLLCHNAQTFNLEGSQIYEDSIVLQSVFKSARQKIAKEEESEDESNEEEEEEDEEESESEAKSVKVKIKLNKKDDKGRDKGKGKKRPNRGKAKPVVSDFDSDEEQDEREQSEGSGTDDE
UniProt Q12824: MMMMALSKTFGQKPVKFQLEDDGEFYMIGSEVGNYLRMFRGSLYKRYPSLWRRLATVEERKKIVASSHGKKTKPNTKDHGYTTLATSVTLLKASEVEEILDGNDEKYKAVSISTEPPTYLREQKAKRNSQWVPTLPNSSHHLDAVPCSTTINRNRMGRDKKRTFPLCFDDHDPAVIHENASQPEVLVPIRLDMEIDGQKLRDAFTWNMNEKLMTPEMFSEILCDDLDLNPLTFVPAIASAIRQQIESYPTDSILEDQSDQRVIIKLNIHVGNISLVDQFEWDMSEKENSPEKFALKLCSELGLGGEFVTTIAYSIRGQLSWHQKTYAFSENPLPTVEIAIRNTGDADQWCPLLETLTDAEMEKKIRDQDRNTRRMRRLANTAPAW
UniProt Q8IUF8: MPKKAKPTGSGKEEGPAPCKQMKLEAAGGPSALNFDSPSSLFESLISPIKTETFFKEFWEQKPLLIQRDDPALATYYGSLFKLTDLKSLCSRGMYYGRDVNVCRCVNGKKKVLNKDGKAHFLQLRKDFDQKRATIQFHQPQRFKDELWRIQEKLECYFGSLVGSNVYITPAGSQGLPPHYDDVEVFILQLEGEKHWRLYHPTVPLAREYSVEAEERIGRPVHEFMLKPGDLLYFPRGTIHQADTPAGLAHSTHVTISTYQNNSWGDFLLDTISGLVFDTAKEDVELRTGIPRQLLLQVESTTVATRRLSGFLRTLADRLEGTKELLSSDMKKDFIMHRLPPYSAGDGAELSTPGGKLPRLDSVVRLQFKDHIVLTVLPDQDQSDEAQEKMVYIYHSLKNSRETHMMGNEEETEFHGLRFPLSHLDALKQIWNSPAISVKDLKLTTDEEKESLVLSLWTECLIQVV

biological target: Polypyrimidine Tract Binding Protein 1, His-tagged (UniProt P26599); experiment: affinity purification with mass spectrometry; 48 ug His-tagged PTBP in a 200 ul splicing reaction (2.2 mM MgCl2, 0.4 mM ATP, 20 mM creatine phosphate) with WERI retinoblastoma nuclear extract, 30 C 90 min; HisPur Ni-NTA magnetic resin overnight at 4 C; washes with 150 mM NaCl, 30 mM imidazole; eluted with 300 mM imidazole; proteins of the Buffer DG and WERI only controls removed from the lists; the extract includes RNA transcripts, so a protein may be bound directly or through RNA; only the target purified

binding	Substance
binds	14-3-3 adaptor protein SFN (from UniProt P31947 1-248)
binds	CHD5 (from UniProt Q8TDI0 1-1954)
binds	E3 ubiquitin ligase LTN1 (from UniProt O94822 1-1766)
binds	EIF2S3 (from UniProt P41091 1-472)
binds	FUBP1 (from UniProt Q96AE4 1-644)
binds	PABPC1 (from UniProt P11940 1-636)
binds	PRRC2A (from UniProt P48634 1-2157)
binds	PSMA6 (from UniProt P60900 1-246)
binds	PSMD12 (from UniProt O00232 1-456)
binds	Ran-related protein RCC1 (from UniProt P18754 1-421)
binds	Ras-related protein RAB2A (from UniProt P61019 1-212)
binds	Ras-related protein RAB7A (from UniProt P51149 1-207)
binds	Ras-related protein RAB11A (from UniProt P62491 1-216)
binds	SETSIP (from UniProt P0DME0 1-292)
binds	TAF8 (from UniProt Q7Z7C8 1-310)
binds	YWHAB (from UniProt P31946 1-246)

binding	Substance
binds	YWHAZ (from UniProt P63104 1-245)
binds	cleavage and polyadenylation factor 6 (from UniProt Q16630 1-551)
binds	deubiquitinating enzyme USP7 (from UniProt Q93009 1-1102)
binds	elongation factor EEF1D (from UniProt P29692 1-281)
binds	mRNA cap methyltransferase RNMT (from UniProt O43148 1-476)
binds	ribosomal protein RPLP1 (from UniProt P05386 1-114)
binds	ribosomal protein RPLP2 (from UniProt P05387 1-115)
binds	small nuclear ribonuclear protein SNRNPG (from UniProt P62308 1-76)
binds	splicing factor DDX39B (from UniProt Q13838 1-428)
binds	splicing factor SF3B2 (from UniProt Q13435 1-895)
binds	splicing factor hnRNPK (from UniProt P61978 1-463)
binds	splicing factor snRNPA (from UniProt P09012 1-282)
binds	transcriptional regulatory factor TRIM28 (from UniProt Q13263 1-835)
binds	translation initiation factor EIF4A1 (from UniProt P60842 1-406)
binds	translation initiation factor EIF4A2 (from UniProt Q14240 1-407)

biological target: Polypyrimidine Tract Binding Protein 2, His-tagged (UniProt Q9UKA9); experiment: as above

binding	Substance
binds	ANP32B, an acidic leucine rich phosphoprotein (from UniProt Q92688 1-251)
binds	DDX5 (a DEAD box helicase) (from UniProt P17844 1-614)
binds	MAGOH (from UniProt P61326 1-146)
binds	MAGOHB (from UniProt Q96A72 1-148)
binds	SETSIP (from UniProt P0DME0 1-292)
binds	SKP1 (from UniProt P63208 1-163)
binds	SMARCA2 (from UniProt P51531 1-1590)
binds	SMARCB1 (from UniProt Q12824 1-385)
binds	SMARCC2 (from UniProt Q8TAQ2 1-1214)
binds	SMARCE1 (from UniProt Q969G3 1-411)
binds	YWHAB (from UniProt P31946 1-246)
binds	YWHAZ (from UniProt P63104 1-245)
binds	ZSWIM8 (from UniProt A7E2V4 1-1837)
binds	cleavage and polyadenylation factor 6 (from UniProt Q16630 1-551)
binds	deubiquitinating enzyme USP7 (from UniProt Q93009 1-1102)
binds	elongation factor EEF1A1 (from UniProt P68104 1-462)
binds	heterogenous ribonuclear protein hnRNPH1 (from UniProt P31943 1-449)
binds	histone lysine demethylase RIOX2 (from UniProt Q8IUF8 1-465)
binds	mRNA cap methyltransferase RNMT (from UniProt O43148 1-476)
no binding	ribosomal protein RPLP1 (from UniProt P05386 1-114)
no binding	ribosomal protein RPLP2 (from UniProt P05387 1-115)
binds	serine arginine rich splicing factor SRSF1 (from UniProt Q07955 1-248)
binds	small nuclear ribonuclear protein SNRNPG (from UniProt P62308 1-76)
